These are yes or no findings as the source states them, for the method shown. Binding seen in cells or lysates may run through a third protein. Some entries that bind do so weakly or less than the wild type.
Assays:
CB1-NlucC (human) [1] = biological target: CB1-NlucC (human) (UniProt P21554); test: FRET or BRET; as the β-arrestin2 recruitment BRET in living HEK293-TR cells, with L759633 as the agonist; response normalised to 2AG
CB1-NlucC (human) [2] = biological target: CB1-NlucC (human) (UniProt P21554); test: FRET or BRET; living HEK293-TR cells stably co-expressing CB1-NlucC and NES-venus-β-arrestin2; agonists added (2AG as reference), BRET read at 1-min intervals for 30 min at 37 °C; HBSS, 0.5% BSA, 5 mM HEPES, 10 μM furimazine
CB1-NlucC (human) [3] = biological target: CB1-NlucC (human) (UniProt P21554); test: FRET or BRET; as the β-arrestin2 recruitment BRET in living HEK293-TR cells, with Cannabinol as the agonist; response normalised to 2AG

Sequences of proteins named here, by UniProt entry; tags and fusion partners are left off.
UniProt P21554: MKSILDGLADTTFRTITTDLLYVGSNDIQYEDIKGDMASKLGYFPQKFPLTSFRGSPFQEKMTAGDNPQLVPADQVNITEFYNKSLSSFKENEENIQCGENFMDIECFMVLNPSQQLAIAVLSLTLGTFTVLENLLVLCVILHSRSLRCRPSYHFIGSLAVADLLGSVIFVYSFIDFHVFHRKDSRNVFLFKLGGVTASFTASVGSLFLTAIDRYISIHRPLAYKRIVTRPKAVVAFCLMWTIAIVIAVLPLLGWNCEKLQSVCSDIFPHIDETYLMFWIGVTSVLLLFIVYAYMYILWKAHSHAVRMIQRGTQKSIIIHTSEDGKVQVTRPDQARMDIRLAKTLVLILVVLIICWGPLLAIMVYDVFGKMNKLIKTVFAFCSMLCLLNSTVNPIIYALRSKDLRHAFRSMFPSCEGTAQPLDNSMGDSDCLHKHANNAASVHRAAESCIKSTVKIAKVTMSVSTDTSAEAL
UniProt P32121: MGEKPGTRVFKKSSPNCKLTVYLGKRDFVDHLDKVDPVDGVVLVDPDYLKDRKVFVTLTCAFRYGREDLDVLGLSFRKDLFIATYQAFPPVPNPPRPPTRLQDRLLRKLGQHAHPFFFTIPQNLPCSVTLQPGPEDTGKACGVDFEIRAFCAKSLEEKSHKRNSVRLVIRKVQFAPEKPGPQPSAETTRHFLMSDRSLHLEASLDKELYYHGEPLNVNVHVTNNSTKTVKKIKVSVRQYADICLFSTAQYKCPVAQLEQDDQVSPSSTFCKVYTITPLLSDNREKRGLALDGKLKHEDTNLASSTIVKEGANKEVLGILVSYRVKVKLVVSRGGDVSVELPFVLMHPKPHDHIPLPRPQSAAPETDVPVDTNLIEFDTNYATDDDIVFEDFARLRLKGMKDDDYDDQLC

- binding (CB1-NlucC (human) [1]): binds weakly
- binding (CB1-NlucC (human) [2]): binds
Substance: NES-venus-β-arrestin2 (from UniProt P32121 1-409)
- binding (CB1-NlucC (human) [3]): no binding (condition: with Cannabinol as the agonist)

Reference: publication PMC11711184, “Structural basis of THC analog activity at the Cannabinoid 1 receptor” (Nature Communications, 2025)
